Among the data in article PMC5400244 are binding values, retold here.

Sequences of proteins named here, by UniProt entry; tags and fusion partners are left off.
UniProt O75475: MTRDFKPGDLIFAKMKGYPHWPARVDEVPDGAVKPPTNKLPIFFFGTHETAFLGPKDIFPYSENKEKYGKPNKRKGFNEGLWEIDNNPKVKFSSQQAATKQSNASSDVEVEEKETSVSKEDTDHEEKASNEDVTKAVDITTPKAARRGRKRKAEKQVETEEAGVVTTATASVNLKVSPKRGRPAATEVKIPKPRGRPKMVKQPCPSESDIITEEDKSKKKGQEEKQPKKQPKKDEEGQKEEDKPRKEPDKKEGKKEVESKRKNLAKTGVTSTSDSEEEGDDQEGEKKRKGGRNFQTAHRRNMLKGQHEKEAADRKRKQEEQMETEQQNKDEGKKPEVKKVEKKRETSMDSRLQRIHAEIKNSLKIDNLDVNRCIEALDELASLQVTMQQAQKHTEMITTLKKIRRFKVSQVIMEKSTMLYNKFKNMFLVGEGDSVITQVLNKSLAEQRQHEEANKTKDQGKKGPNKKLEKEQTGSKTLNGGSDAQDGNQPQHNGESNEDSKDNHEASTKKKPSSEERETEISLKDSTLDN
UniProt Q07955: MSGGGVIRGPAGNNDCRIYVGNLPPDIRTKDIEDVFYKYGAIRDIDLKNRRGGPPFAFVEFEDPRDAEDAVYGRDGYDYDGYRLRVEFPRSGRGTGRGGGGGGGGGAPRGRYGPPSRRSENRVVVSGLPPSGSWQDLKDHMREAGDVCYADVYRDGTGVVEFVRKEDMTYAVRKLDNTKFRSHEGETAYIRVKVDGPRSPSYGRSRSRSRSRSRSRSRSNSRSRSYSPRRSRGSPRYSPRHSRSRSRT

No constants are given. Whether binding was seen depends on the method and setting. Binding seen in cells or lysates may run through a third protein. Some entries that bind do so weakly or less than the wild type.

The experiment has as its target PC4 and SFRS1-interacting protein (human (endogenous in EBV-transformed lymphoblast cells of an FD patient)) (UniProt O75475). As to the kind of experiment: co-IP; endogenous proteins in FD cell lysates; 5 ug antibody covalently cross-linked to Protein A/G magnetic beads (Pierce Crosslink Magnetic IP/Co-IP kit), room temperature 2 hours, low-pH elution, Western blotting; nonimmune IgG as negative control. (In general: In western blotting, separated proteins are transferred to a membrane and probed.)

Take SF2/ASF (from UniProt Q07955 1-248): the binding entry is given as “binds”.
